The values that follow come from paper PMC8155215, “The splicing factor XAB2 interacts with ERCC1-XPF and XPG for R-loop processing”.

This test has as its target T1, biotin-tagged XAB2 (XPA-binding protein 2) from aviXab2+/+;birA knock-in mice (mouse) (UniProt Q9DCD2).
T1 sequence (chain, biotin on the 15aa Avitag (added in vivo by the BirA ligase)): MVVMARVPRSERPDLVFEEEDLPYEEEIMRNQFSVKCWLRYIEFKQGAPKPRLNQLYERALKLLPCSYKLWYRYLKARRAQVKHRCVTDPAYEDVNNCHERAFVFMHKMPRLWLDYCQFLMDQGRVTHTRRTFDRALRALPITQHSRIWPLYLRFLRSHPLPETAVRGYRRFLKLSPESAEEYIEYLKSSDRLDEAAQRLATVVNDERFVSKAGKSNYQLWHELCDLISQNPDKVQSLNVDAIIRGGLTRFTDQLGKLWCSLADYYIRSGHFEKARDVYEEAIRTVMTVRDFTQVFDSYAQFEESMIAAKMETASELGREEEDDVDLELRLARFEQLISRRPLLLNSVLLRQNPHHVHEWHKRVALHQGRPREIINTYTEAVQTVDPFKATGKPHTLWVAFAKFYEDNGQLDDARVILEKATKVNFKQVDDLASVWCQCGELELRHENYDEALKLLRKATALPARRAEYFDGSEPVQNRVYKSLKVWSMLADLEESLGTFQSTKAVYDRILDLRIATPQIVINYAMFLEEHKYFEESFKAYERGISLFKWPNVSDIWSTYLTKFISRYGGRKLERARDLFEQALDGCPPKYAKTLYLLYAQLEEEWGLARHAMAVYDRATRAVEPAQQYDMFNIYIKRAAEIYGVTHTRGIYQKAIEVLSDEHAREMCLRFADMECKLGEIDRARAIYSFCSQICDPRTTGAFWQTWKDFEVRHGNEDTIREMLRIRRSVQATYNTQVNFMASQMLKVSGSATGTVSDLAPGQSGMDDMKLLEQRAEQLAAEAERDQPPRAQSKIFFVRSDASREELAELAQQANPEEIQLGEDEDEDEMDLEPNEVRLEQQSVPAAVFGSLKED
The test is described as follows: affinity purification with mass spectrometry; bXAB2 captured on M-280 streptavidin beads from high-salt nuclear extracts of P15 bXAB2 livers treated with benzonase and RNase A; BirA livers as control; three biological replicates, nLC-MS/MS.

These are yes or no findings as the source states them, for the method shown. In cells and extracts the contact can be indirect. A yes stands for co-enrichment or nearness to the bait. Other partners may have been found. Where a sequence is shown, tags or fusion partners need not be part of it.

B1: NUP133 (protein, UniProt Q8R0G9 1-1155)
chain: MFPSVSSPRTPGPGTRRGPLVGIGPTSTPRASRRGLSLGSAVNSPVLFSPAGRRSSVSSRGTPTRIFPHHSISESVNYDVRVFGSSLPVKIMEALTMAEADEQLSVHVDEGGWACLVCTEKLLIWKIAVSPVTKLSVCKELQLPPSDFHGSADLVALSYAATSGEVHSVQAVSVMVATKEGSIRYWPSLAREDTYSDTCVDLGGEKMCRFLTAVQGGSFILSSVGSQLVRLIPESSGKIHQHVLPQGQGMLSGIGRRVSSLFGILSPTSDLMLASVLWDRGGSSFYTLTSSNISKWELDDSSEKQVHSWDVHRTLKESITDAVWGSESNYEAIKEGVNIQYLDLKQNCDGLLILAAAWHLGDSPCLVYYSVITVEDNGNQMSDAVTVEVTQYNPPFQSEDLIACRLMVPNFSSQMTYLYMENAVFVCSTGTGKFSLPQEKIVFDTQGDGILGAGSCAGVPILFSRNSGLVSVTPRENVSLLAEDLEESLTSSVGGRGSESMVFETTTKNETVAHEDKTKLLKAAFLQYCRKDLGRAQIMADELFSSHTDLDSDPELDKAVTQISVDLIDDYPASDPRWAESVPQEAPGLSNTSLIILHQLEDKMKAHCLLVDFLHQVGLFRRLSSYPIRGTPMSTRLLLCEHAEKLSAAITLKNHHSRLPDLVNSAILLALNKRECEVPNSLTPADVFFREVSQVDTICECLLEHEEQVLREVALVSQEWAEVAIDVNTVLKDMLQAATHYRLNKSSMYSQEEVLGKEPEYVPWTATSGPSGIRTAVMRQHGIILKMVYPQADSKLRNVVMEQLVALIDCFLDSYVSQLKSLEKSSDQERYSSLEVEYLQKRSELLSPLLTLGQYPWAASLAEKYCDFDILVQMCEQTDNQARLQRYMTQFADQNFSDFLFRWYLEKGKRGKLLSQPISQHGQLANFLQAHEHLSWLHEINSQELEKAHTTLLGLANMETRYFAKKKTLLGLSKLAALASDISEDRLQEKIEAMAEQERFLLHQETLPEQLLTERQLSLSAMPVLTAPQLISLYICDENRRANEYDFKKALDLLEYIDEEEDVSIDDLKLEILCRALQRDDWSGSDGKDDPIEVSKDSVFVKILQKLIKDGIQLSEYLPEVTDLLRAEQLGSLKSNSYFEFVLKANYEYYVQGQM
Consider B1, for which the binding entry is listed as “binds”.
